Experimental data: patent US20230174581A1, “PROCESSES AND AGENTS FOR GLAUCOMA” (AUFBAU MEDICAL INNOVATIONS LIMITED, priority 2020, published 2023)
pEC50: −log10 of the molar value.

Assay: Dose-response of IOP reduction in bovine vitreous humor (BVH) glaucoma model, microfluidic chip device
Settings: 12.5% BVH, incubated at 37° C. for 1 hour; 7 ul injected; read-out: EC50 for treatment of glaucoma in a bovine vitreous model (IOP reduction)
Description: Bovine vitreous after homogenization was used to model human disease because it mimicked elevated IOP in humans. […] Once it was added to BVH, the final water concentration was 0.5%. […] Once added to BVH, the final DMSO concentration was 0.5%. […] The pellet was resuspended with PBS and concentrated by 2.5X fold. For treatment of BVH with compound, 25 ul of enriched BVH was added to 25 ul of Compound and incubated for 1 hour in a thermocycler at 37° C., then 5 ul of 5 mM CFSE was added, and the sample incubated in a thermocycler at 37° C. for 30 minutes. EC50 was estimated by plotting the logarithmic functions of the micromolar concentration of the drug in the x axis against the percent of maximal response in the y axis. The maximal response was taken as the value of the response for the highest drug concentration. The response was calculated by taking the absolute difference between the control and test value for each concentration. The compound colistin sulfate was tested in bovine vitreous humor (BVH) glaucoma model in a microfluidic chip device. […] The test compound-BVH solution was introduced into the reservoir of the microfluidic chip device and flow rate and pressure change were recorded. […] The response was calculated by taking the absolute difference between the control and test value for each concentration.

In the case of `CCCCCCCCCCCCCCCC[n+]1ccccc1` [cetylpyridinium chloride, 1-hexadecylpyridin-1-ium], the pEC50 was 9.05.
